Experimental data reported in PubChem BioAssay AID489039 (National Center for Advancing Translational Sciences (NCATS), 2010).
This list was built around the results that the source calls inconclusive (neither active nor inactive); the mix of calls is not that of the screen. Potencies beside an inconclusive call are fits to weak or partial responses and may not hold up. Active and inactive are the calls of the source. The call rests on the fitted dose curve; in most records, active means well fitted inhibition curve with a large enough effect; inconclusive means small, poorly fitted or top-dose-only effect, or effect the other way; inactive means no such curve, though single readings can be large or run the other way.

The compounds below were run against Nuclear receptor ROR-alpha (Homo sapiens) (UniProt P35398) (assay: ROR alpha selectivity assay for inhibitors of ROR gamma transcriptional activity). Conditions: Drosophila S2 Gal4-RORalpha UAS-luciferase, 20 h; series mostly up to 92.2 µM.
Summary of the method: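 Luciferase signal, measured 20 h after 700 uM final copper sulfate induction at ambient temperature, from S2 insect cells expressing a Gal4-RORalpha transactivation-domain fusion and UAS reporter. Compounds added 1 h before induction.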

SMILES | Potency
COCC1CCCCN1C(=O)c1cc(COc2ccc3ncccc3c2)on1 (centres undefined) | active: 14.4 µM
CCNC(=O)CCc1nc(-c2ccc(C(C)(C)C)cc2)no1 | active: 0.162 µM
COc1cc(O)c(C(CC(=O)N2CCCC(C(=O)N3CCCCC3)C2)c2ccc3c(c2)OCO3)c(OC)c1 (centres undefined) | inconclusive: 0.911 µM [activator, full curve, poor fit]
CCCC1CCN(C(=O)CC(c2ccc3c(c2)OCO3)c2c(O)cc(OC)cc2OC)C1 (centres undefined) | inconclusive: 45.7 µM [inhibitor, partial curve, poor fit]
COc1cc(OC)c2c(c1)OC(=O)CC2c1ccc2c(c1)OCO2 (centres undefined) | inconclusive: 2.29 µM [activator, full curve, poor fit]
COC(=O)Cn1c(CN2CCc3ccccc3C2)nc2c1c(=O)n(C)c(=O)n2C | active: 18.2 µM
COCOc1cc(OC)cc(OC)c1C(CC(=O)N1CC(C)CC(C)C1)c1ccc2c(c1)OCO2 (centres undefined) | inactive
COc1ccc(C(=O)/C=C/c2ccc(OC)cc2OC)c(O)c1 | inconclusive: 0.0724 µM [inhibitor, full curve, poor fit]
COc1ccc(C)c(O)c1C(CC(=O)N1CCCC(C)C1)c1ccc2c(c1)OCO2 (centres undefined) | inconclusive: 64.5 µM [inhibitor, single point]
COc1cc(OC)c(C(c2ccccc2)C(C)(C)C(=O)N2CC(C)CC(C)C2)c(OC)c1 (centres undefined) | active: 16.2 µM
CC1CCCN(C(=O)CC(c2ccc3c(c2)OCO3)c2ccc(O)cc2O)C1 (centres undefined) | inactive
CCC1CCCN(C(=O)CC(c2ccc3c(c2)OCO3)c2c(O)cc(OC)cc2OC)C1 (centres undefined) | inconclusive: 72.4 µM [inhibitor, single point]
COc1cc(O)c(CCC(=O)N2CCCC(C)C2)c(OC)c1 (centres undefined) | inconclusive: 1.44 µM [activator, full curve, poor fit]
COc1cc(O)c(C(CC(=O)N2CCC(Cc3ccccc3)CC2)c2ccc(C)cc2)c(OC)c1 (centres undefined) | inconclusive: 72.4 µM [activator, single point]
COc1ccc(C(CC(=O)N2CCCC(C)C2)c2ccc3c(c2)OCO3)c(O)c1 (centres undefined) | inconclusive: 22.9 µM [activator, single point]
COc1cc(O)c(C(CC(=O)N2CCCC(C)C2)c2ccccc2OC)c(OC)c1 (centres undefined) | inactive
CC1CCCN(C(=O)CC(c2ccc3c(c2)OCO3)c2c(O)cccc2Cl)C1 (centres undefined) | inconclusive: 18.2 µM [activator, full curve]
COc1cc(O)c(C(CC(=O)N(C)c2cccc(C)c2)c2ccc3c(c2)OCO3)c(OC)c1 (centres undefined) | inconclusive: 0.911 µM [activator, full curve, poor fit]
Cc1cc(C)n(-c2nc(SCC(=O)O)c3c4c(sc3n2)CCCC4)n1 | active: 18.2 µM
COc1ccc(CNC(=O)[C@@H](NC(=O)C2CCN(C(=O)[C@@H]3CCCN3C(=O)OC(C)(C)C)CC2)C(C)C)cc1 | inconclusive: 40.7 µM [activator, single point]
O=C(CCCN1C(=O)/C(=C/c2ccccc2Cl)SC1=S)Nc1cccnc1 | active: 1.82 µM
COc1cc(O)c(C(CC(=O)N2CCCC(C(F)(F)F)C2)c2ccc3c(c2)OCO3)c(OC)c1 (centres undefined) | inconclusive: 22.9 µM [activator, partial curve]
COc1cc(O)c(C(CC(=O)N2CCCC(C)(C)C2)c2ccc3c(c2)OCO3)c(OC)c1 (centres undefined) | inactive
Cc1ccc(O)c(C(CC(=O)NC2CCCCC2)c2ccccc2)c1 (centres undefined) | inconclusive: 7.24 µM [activator, full curve, poor fit]
Cc1ccc(C(=O)O/N=C/c2ccc(N(C)C)cc2)cc1 | inconclusive: 0.812 µM [activator, full curve, poor fit]
Cc1cc(C)c2[nH]c(C(=O)Nc3ccc4c(c3)OCO4)cc2c1 | inconclusive: 2.04 µM [inhibitor, full curve, poor fit]
COc1ccccc1C(CC(=O)N1C[C@H](C)C[C@H](C)C1)c1ccccc1 (some centres undefined) | active: 51.2 µM
CCC(=O)C1CCCN(C(=O)CC(c2ccc3c(c2)OCO3)c2c(O)cc(OC)cc2OC)C1 (centres undefined) | inconclusive: 64.5 µM [activator, single point]
COc1cc(O)c(C(CC(=O)NC2CCC(C)CC2)c2ccc3c(c2)OCO3)c(OC)c1 (centres undefined) | inactive

Quoted at random: 2 entries already listed, in no set order.
SMILES | Potency
CC1CCCN(C(=O)CC(c2ccc3c(c2)OCO3)c2ccc(O)cc2O)C1 (centres undefined) | inactive
Cc1cc(C)n(-c2nc(SCC(=O)O)c3c4c(sc3n2)CCCC4)n1 | active: 18.2 µM
